Measurements reported in PMC5702903 (CPT: Pharmacometrics & Systems Pharmacology, 2017).

Assay: Empirical plasma PK model
Type: in vivo
Details: rat plasma PK model; parameter estimate (RSE, %)

## CC(C)NCC(O)COc1ccc(CC(N)=O)cc1 (stereo not shown) [Atenolol]
  VPL, distribution volume of the central compartment: 256 (27.0) mL

## CN1CC[C@]23c4c5ccc(O)c4O[C@H]2[C@@H](O)C=C[C@H]3[C@H]1C5 [Morphine]
  VPER1, distribution volume of the peripheral compartment 1: 530 (9.10) mL
  VPER2, distribution volume of the peripheral compartment 2: 1,200 (10.8) mL
  VPL, distribution volume of the central compartment: 152 (11.1) mL
